Results from the supplement of paper PMC12819154, “High-throughput peptide-centric local stability assay extends protein–ligand identification to membrane proteins, tissues and bacteria” (Nature Structural & Molecular Biology, 2025).
The list shows a part of the results. Most values lie at the level of the controls, where differences are scatter.

By UniProt entry, the sequences of proteins in these tests, tags left out. Where a name states a change or a piece, a line headed by the entry shows the natural chain unless it says otherwise.
UniProt Q8WWN8: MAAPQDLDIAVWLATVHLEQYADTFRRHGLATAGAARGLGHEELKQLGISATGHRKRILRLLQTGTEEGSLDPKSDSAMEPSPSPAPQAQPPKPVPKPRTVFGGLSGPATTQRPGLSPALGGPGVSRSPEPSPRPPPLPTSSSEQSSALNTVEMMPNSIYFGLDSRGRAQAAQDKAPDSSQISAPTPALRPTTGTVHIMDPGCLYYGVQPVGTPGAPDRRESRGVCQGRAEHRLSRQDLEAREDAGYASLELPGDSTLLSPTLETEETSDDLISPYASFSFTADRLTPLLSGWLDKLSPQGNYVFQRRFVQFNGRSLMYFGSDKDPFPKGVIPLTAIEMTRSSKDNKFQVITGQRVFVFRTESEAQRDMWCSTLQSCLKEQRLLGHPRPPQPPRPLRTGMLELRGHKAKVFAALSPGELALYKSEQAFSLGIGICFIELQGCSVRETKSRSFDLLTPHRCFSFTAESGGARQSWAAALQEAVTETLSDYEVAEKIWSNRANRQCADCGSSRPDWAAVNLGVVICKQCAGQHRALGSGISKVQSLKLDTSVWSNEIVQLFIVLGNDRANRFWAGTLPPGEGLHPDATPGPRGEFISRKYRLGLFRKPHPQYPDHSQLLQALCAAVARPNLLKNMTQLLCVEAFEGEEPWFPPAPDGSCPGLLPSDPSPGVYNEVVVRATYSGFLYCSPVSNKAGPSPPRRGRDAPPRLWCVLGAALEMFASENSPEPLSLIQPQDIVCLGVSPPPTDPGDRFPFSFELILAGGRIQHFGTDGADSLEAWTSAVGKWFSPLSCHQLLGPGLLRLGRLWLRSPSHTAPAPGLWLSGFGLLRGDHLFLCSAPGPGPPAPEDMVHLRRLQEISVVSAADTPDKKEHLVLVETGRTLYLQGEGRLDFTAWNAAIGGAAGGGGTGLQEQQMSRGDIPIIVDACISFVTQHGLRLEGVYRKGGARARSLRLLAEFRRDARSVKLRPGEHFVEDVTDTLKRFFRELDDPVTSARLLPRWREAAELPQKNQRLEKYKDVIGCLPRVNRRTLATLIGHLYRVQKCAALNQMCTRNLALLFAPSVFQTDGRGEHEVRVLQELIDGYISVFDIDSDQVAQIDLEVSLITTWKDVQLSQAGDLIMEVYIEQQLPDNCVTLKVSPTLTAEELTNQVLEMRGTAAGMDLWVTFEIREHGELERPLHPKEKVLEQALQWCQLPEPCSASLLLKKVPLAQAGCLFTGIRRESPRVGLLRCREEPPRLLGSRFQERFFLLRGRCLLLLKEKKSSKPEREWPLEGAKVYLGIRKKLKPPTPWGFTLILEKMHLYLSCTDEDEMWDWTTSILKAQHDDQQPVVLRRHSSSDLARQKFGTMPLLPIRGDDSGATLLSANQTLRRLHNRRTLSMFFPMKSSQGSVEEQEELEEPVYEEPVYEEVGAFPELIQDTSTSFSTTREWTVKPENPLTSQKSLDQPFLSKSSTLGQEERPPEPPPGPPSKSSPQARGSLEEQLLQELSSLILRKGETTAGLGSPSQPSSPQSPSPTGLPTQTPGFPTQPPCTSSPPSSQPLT
UniProt Q8WVK2: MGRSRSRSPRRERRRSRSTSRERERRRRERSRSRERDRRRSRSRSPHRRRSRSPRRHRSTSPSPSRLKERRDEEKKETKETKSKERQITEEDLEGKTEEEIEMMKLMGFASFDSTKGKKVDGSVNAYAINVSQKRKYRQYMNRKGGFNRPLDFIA
UniProt Q8TDQ7: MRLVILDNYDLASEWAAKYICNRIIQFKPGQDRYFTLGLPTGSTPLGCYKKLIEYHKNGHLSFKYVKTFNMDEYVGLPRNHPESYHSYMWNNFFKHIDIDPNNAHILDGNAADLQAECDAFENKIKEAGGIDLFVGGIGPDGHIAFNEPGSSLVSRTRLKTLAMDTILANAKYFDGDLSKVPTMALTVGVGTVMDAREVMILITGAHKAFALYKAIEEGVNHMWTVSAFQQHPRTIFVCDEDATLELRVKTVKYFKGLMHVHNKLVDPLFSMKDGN
UniProt Q8TDF6: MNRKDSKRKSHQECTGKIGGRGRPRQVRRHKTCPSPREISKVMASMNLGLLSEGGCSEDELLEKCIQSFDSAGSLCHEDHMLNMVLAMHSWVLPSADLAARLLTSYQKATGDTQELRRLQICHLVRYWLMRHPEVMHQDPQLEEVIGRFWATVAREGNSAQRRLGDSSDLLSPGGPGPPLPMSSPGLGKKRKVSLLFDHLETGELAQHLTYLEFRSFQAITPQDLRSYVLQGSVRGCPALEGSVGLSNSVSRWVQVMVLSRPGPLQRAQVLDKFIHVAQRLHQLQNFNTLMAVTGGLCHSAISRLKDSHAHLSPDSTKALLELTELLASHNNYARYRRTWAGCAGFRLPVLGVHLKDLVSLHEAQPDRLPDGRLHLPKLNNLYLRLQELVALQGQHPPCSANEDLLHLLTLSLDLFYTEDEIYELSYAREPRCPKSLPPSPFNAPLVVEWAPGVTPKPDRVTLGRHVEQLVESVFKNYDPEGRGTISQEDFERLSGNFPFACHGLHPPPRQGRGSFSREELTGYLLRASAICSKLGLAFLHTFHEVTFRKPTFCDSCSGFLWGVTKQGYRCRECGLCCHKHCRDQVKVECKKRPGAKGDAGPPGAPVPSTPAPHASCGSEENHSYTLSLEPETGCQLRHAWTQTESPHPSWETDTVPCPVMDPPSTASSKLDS
UniProt Q8WWH5: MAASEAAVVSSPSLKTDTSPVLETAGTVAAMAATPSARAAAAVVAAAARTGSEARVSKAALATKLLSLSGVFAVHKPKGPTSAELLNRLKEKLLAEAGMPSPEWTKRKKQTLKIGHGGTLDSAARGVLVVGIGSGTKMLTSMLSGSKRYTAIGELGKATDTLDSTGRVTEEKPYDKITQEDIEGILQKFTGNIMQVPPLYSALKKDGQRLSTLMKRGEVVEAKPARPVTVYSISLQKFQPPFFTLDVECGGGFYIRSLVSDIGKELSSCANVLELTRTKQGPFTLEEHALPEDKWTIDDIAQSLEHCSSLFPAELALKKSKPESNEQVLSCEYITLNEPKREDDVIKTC
UniProt Q8TB05: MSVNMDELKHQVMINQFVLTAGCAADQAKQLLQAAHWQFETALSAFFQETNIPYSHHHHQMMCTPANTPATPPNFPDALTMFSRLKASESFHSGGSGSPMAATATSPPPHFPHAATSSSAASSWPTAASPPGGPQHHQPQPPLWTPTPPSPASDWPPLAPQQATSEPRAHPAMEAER
UniProt Q8TEU7: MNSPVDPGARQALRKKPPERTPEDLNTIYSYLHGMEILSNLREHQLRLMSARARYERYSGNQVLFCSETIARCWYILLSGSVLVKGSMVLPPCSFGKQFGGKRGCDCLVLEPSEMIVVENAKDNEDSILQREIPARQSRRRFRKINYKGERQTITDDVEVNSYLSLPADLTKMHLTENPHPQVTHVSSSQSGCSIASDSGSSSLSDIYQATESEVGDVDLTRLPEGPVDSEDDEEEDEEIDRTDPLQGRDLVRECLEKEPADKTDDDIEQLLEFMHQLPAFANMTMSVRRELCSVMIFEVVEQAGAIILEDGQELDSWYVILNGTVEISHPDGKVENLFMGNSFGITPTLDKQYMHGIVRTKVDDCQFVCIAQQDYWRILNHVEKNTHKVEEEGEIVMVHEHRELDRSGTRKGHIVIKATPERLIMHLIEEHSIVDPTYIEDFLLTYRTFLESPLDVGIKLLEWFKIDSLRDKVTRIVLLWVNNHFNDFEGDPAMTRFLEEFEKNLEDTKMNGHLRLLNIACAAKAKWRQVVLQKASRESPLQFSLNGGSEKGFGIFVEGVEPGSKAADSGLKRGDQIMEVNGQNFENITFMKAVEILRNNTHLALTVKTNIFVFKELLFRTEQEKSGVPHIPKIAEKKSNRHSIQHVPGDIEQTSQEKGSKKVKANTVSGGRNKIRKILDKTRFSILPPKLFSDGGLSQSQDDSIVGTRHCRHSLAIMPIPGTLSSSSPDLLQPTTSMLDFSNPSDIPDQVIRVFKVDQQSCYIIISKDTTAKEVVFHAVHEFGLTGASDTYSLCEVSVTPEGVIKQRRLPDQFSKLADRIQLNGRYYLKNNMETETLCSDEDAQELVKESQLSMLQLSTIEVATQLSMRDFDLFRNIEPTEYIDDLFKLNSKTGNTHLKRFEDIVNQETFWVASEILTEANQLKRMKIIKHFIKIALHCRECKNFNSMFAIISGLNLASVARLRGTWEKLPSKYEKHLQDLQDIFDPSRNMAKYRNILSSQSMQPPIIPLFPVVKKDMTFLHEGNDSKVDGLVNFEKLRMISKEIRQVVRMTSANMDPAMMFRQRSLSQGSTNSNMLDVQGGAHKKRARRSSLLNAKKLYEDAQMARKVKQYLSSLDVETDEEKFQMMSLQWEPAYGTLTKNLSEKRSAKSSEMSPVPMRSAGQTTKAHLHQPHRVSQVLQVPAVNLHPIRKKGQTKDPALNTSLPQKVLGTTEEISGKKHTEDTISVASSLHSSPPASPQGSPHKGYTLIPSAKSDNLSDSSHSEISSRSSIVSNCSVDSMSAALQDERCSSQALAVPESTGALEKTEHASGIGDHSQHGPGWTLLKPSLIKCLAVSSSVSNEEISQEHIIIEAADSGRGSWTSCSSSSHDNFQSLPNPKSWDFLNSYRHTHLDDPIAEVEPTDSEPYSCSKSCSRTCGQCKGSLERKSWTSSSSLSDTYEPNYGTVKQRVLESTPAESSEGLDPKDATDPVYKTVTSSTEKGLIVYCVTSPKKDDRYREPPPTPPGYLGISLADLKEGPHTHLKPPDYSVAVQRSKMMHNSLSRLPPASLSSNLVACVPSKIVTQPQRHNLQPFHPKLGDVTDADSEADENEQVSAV
UniProt Q92575: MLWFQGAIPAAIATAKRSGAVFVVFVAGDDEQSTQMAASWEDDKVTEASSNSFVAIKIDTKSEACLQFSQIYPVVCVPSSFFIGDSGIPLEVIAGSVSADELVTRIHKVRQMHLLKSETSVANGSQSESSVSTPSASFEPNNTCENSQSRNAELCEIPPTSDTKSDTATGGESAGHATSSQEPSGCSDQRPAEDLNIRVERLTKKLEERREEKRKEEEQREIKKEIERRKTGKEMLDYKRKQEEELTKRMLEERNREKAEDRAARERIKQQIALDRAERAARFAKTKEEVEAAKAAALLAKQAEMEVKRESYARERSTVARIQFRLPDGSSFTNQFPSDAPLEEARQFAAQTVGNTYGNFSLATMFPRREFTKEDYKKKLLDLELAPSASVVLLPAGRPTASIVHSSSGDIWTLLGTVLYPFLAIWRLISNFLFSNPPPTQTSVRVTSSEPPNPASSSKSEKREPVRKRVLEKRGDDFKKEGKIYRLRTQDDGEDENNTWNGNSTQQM
UniProt Q8WUA4: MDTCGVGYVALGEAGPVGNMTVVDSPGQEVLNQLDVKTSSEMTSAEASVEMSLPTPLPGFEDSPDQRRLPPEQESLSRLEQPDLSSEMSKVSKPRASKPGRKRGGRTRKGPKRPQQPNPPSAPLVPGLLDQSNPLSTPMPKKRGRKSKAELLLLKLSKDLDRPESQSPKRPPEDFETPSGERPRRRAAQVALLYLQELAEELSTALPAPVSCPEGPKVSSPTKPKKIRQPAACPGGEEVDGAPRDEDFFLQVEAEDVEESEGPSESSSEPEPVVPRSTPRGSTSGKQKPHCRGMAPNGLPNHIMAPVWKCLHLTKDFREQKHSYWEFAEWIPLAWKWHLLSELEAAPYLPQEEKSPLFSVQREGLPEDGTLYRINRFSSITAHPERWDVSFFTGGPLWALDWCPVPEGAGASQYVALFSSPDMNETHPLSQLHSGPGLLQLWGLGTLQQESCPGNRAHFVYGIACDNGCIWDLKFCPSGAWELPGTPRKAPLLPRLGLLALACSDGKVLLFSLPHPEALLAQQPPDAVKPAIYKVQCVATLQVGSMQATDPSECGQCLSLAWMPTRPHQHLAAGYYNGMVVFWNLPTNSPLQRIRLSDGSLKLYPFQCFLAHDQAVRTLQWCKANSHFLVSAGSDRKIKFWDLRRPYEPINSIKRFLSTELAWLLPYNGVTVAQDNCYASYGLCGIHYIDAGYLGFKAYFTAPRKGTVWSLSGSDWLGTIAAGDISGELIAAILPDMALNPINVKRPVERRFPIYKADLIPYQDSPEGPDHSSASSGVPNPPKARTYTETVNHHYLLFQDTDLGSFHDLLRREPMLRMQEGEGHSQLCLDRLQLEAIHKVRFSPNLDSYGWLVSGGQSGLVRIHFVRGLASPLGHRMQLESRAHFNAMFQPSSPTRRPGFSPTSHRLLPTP

Compound: Cc1nc(Nc2ncc(C(=O)Nc3c(C)cccc3Cl)s2)cc(N2CCN(CCO)CC2)n1 [dasatinib]
Experiment: log2 fold change of tryptic peptide abundance, ligand vs vehicle (limited proteolysis) (log2 ratio); higher = more trypsin-susceptible (destabilized)
Conditions: ligand concentration: 5 uM; sample: K562 cleared lysate

Target	log2 fold change
ARAP3 (peptide sequence: LRPGEHFVEDVTDTLKR, peptide start residue: 966) (UniProt Q8WWN8)	-0.161
SNRNP27 (peptide sequence: LMGFASFDSTK, peptide start residue: 106) (UniProt Q8WVK2)	0.0786
FBF1 (peptide sequence: AELTAQHQR, peptide start residue: 670) (UniProt Q8TES7)	0.819
GNPDA2 (peptide sequence: LVDPLFSMK, peptide start residue: 265) (UniProt Q8TDQ7)	0.123
UniProt Q8TDF6 (peptide sequence: AQVLDKFIHVAQR, peptide start residue: 268)	-0.479
MRPL30 (peptide sequence: VFQASPEDHEK, peptide start residue: 45) (UniProt Q8TCC3)	-0.273
TRUB1 (peptide sequence: GVLVVGIGSGTK, peptide start residue: 126) (UniProt Q8WWH5)	-0.353
UniProt Q8TB05 (peptide sequence: AHPAMEAER, peptide start residue: 169)	-0.0358
RAPGEF6 (peptide sequence: RLPDQFSK, peptide start residue: 810) (UniProt Q8TEU7)	-0.472
UBXN4 (peptide sequence: EMLDYKR, peptide start residue: 234) (UniProt Q92575)	0.235
GTF3C2 (peptide sequence: DLDRPESQSPK, peptide start residue: 159) (UniProt Q8WUA4)	0.442

Already shown: an excerpt of the list.
Target	log2 fold change
MRPL30 (peptide sequence: VFQASPEDHEK, peptide start residue: 45) (UniProt Q8TCC3)	-0.273
TRUB1 (peptide sequence: GVLVVGIGSGTK, peptide start residue: 126) (UniProt Q8WWH5)	-0.353
